Hit rate of the full screen: of about 320,000 compounds, about 22,000 (6.9%) were called active. This list was built around the results that the source calls inconclusive (neither active nor inactive); the mix of calls is not that of the screen. The call rests on the fitted dose curve; in most records, active means well fitted inhibition curve with a large enough effect; inconclusive means small, poorly fitted or top-dose-only effect, or another doubt; inactive means no such curve, though single readings can be large or run the other way. Where the call is inconclusive, the potency comes from a doubtful curve fit.
Test: Primary qHTS for delayed death inhibitors of the malarial parasite plastid, 96 hour incubation
Settings: P. falciparum luciferase reporter growth; series mostly up to 28.7 µM; activity change, negative = inhibition: at the top concentration
Summary of the method: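 Two parasite generations (96 h, 37 C, 5% CO2) of compound exposure in infected erythrocytes (0.05% parasitemia, 2% hematocrit). Luciferase-reporter P. falciparum; decreased luminescence indicates inhibited growth, aimed at apicoplast-acting delayed death.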
On the % scale 0 is the no-effect control and ±100 the full control effect; potency means the concentration at half of the fitted maximal effect.

SMILES | Potency | activity change, negative = inhibition
CCc1ccc(NC(=O)c2ccc(C3SCC(=O)N3CCc3ccccc3)cc2)cc1 (stereo not given) | inconclusive: 7.38 µM [inhibitor, partial curve, poor fit] | 
Cc1[nH]c(=O)[nH]c(=O)c1N(C)C | inconclusive: 10.4 µM [inhibitor, single point] | 
COC(=O)c1ccc(CSc2nnc3nc(C)cc(C)n23)cc1 | inconclusive: 6.57 µM [inhibitor, partial curve, poor fit] | 
Cc1nnc(SC(C)C(=O)NC2CCCCC2C)s1 (stereo not given) |  | inactive: 23.1%
Cc1cc(C)c2oc(-c3cccc(N)c3)nc2c1 |  | inactive: 66.5%
CC1CCc2c(C(=O)NCc3ccccn3)csc2C1 (stereo not given) | inconclusive: 2.94 µM [inhibitor, single point] | 
COc1ccc(C(=O)NCCCc2ccccc2)cc1OC | inconclusive: 6.57 µM [inhibitor, partial curve, poor fit] | 
Cc1ccc(C)c(OCC(O)CN2CCCCC2C)c1 (stereo not given) | active: 10.4 µM | 
[O-][n+]1c2cc(C(F)(F)F)ccc2c2n1CCN=C2c1ccc(Cl)cc1 | inconclusive: 18.5 µM [inhibitor, single point] | 
COc1ccc(N2CCN(S(=O)(=O)CCNC(=O)COc3ccc(Cl)cc3)CC2)cc1 | inconclusive: 13.1 µM [inhibitor, partial curve] | 
S=c1sc2ccccc2n1CCc1ccncc1 | inconclusive: 18.5 µM [inhibitor, single point] | 
CC(C)CN(CC(C)C)c1nnc(NC(=O)Cn2c(=O)oc3ccccc32)s1 | inconclusive: 18.5 µM [inhibitor, single point] | 
CC(/C=C/c1cccc([N+](=O)[O-])c1)=N\NC(=O)c1ccncc1 | inconclusive: 18.5 µM [inhibitor, single point] | 
CCOc1ccccc1CNCCNCC(C)O (stereo not given) | active: 9.28 µM | 
CCCCNC(=O)CSc1nc(COc2ccccc2)nc2ccccc12 |  | inactive: -17.2%
Nc1nnc(SCC(=O)Nc2ccccc2)s1 |  | inactive: 35.3%
Cc1ccc(C(=O)Nc2ccc(C(=O)N/N=C/c3ccncc3)cc2)cc1 |  | inactive: -13.4%
CCCCOc1nc2ccccc2c(=O)n1-c1ccccc1 | inconclusive: 14.7 µM [inhibitor, single point] | 
O=C(COC(=O)CNC(=O)c1ccccc1F)Nc1cccc(S(=O)(=O)N2CCCCCC2)c1 |  | inactive: 10.6%
COc1ccc(N2CC(C)Cn3c2nc2c3c(=O)n(CCc3ccccc3)c(=O)n2C)cc1 (stereo not given) |  | inactive: -8.56%
COc1ccc(Cc2[nH]n3c(=O)cc(C(C)C)nc3c2-c2ccccc2)cc1 |  | inactive: 104%
Cc1ccc(CCC2C3=C(CCCC3=O)OC3=C2C(=O)CCC3)cc1 | inconclusive: 8.28 µM [inhibitor, partial curve, poor fit] | 
COc1ccc(C(C)=O)cc1CC(C(=O)c1ccc(Br)cc1)N(C)C (stereo not given) | inconclusive: 18.5 µM [inhibitor, single point] | 
Cn1c[n+](C)cc1-c1ccc(/C(N)=N/O)cc1 | active: 4.65 µM | 

SMILES | Potency | activity change, negative = inhibition
NNC(=O)CNC(c1ccccc1)c1cc(Br)ccc1N (stereo not given) | inconclusive: 3.29 µM [inhibitor, partial curve, poor fit] | 
Cc1cccc(Cn2cc3c(=O)n(Cc4cccc(F)c4)nc-3c3ccccc32)c1 | inconclusive: 1.47 µM [inhibitor, full curve] | 
Oc1c(C(c2ccc(F)cc2)N2CCc3ccccc3C2)sc2ncnn12 (stereo not given) | inconclusive: 10.4 µM [inhibitor, single point] | 
COc1cc(-c2cc3nc4ccccc4n3c(N)c2C#N)cc(OC)c1OC | inconclusive: 2.62 µM [inhibitor, full curve] | 
COCCNC(=O)c1nc2c(nnn2Cc2cc(C)ccc2C)c(=O)[nH]1 | active: 9.28 µM | 
Cc1ccc(NC(=O)CCNC(=O)c2ccco2)cc1Cl |  | inactive: -10.3%
Cc1onc(-c2c(F)cccc2Cl)c1C(=O)NC(=S)NC1CCS(=O)(=O)C1 (stereo not given) | inconclusive: 18.5 µM [inhibitor, single point] | 
CCOC(=O)Cc1csc(NC(=O)c2ccc(S(=O)(=O)N3CCCC3)cc2)n1 | inconclusive: 0.037 µM [inhibitor, full curve, poor fit] | 
CCOC(=O)c1sc2c(c1C)c(=O)n(Cc1ccccc1)c(=O)n2CCN(C)C | active: 2.08 µM | 
COC(=O)c1ccc(=O)c2nc3/c(=C/O)c(O)cc(=O)c3[nH]c12 | inconclusive: 2.33 µM [inhibitor, full curve, poor fit] | 
C=CCNc1cc(C)oc(=O)c1C(=O)CCC | inconclusive: 9.28 µM [inhibitor, single point] | 
CCC(=O)N1CCN(c2ccnc3cc(Cl)ccc23)CC1 | active: 11.7 µM | 
Cc1nn(C(C)C(=O)NC(C)CCc2ccccc2)c(=O)c2cc3occc3n12 (stereo not given) | inconclusive: 18.5 µM [inhibitor, single point] | 
O=C1NC(=O)/C(=C/c2ccc(-c3cccc([N+](=O)[O-])c3)o2)S1 | inconclusive: 13.1 µM [inhibitor, single point] | 
Cc1csc2ncnc(NNC(=O)c3ccc(Cl)cc3)c12 | inconclusive: 1.17 µM [inhibitor, partial curve] | 
CN(C)S(=O)(=O)c1ccc(NC(=O)N2CCN(c3ccccc3Cl)CC2)cc1 | inconclusive: 9.28 µM [inhibitor, single point] | 
Cc1c(C(=O)N2CCCC2)c(S(=O)(=O)Nc2cccc(Br)c2)c(C)n1C | inconclusive: 10.4 µM [inhibitor, partial curve, poor fit] | 
Cc1cc(C)c(Cn2c3ccccc3c3cnn(CC(=O)NCc4ccccn4)c(=O)c32)c(C)c1 |  | inactive: -4.13%
COc1cc(/C=C/C(=O)OCC(=O)c2c[nH]c3ccccc23)ccc1OC(F)F | inconclusive: 10.4 µM [inhibitor, single point] | 
CCc1ccccc1NC(=O)C1CCCN1S(=O)(=O)c1ccc2c(c1)n(C)c(=O)c(=O)n2C (stereo not given) | inconclusive: 10.4 µM [inhibitor, single point] | 
COC(=O)C1[C@@H](OC)C(OC(=O)COc2ccc(OC)cc2)C[C@@H]2CN3CCc4c([nH]c5cc(OC)ccc45)[C@H]3C[C@H]12 (stereo not given in full) | active: 6.75 µM | 
COc1ccc(N2CCN(C(=O)C3CCN(S(=O)(=O)c4ccc(C)cc4)CC3)CC2)cc1 |  | inactive: 6.26%
CCOc1ccc(NC(=O)CN(C)C(=O)c2sccc2-c2ccccc2)cc1OCC | inconclusive: 1.65 µM [inhibitor, full curve] | 
Cc1noc(C)c1CCC(=O)N1CCCC(CCC(=O)NCc2ccccc2F)C1 (stereo not given) |  | inactive: 33%

SMILES | Potency | activity change, negative = inhibition
CN(C)c1ccc(C(=O)OCC(=O)N2CCCCCC2)cc1 |  | inactive: 120%
Cc1ccc(-c2nnn(CC(=O)N(CC3CCCO3)C(C(=O)NC3CCCC3)c3ccc(O)cc3)n2)o1 (stereo not given) |  | inactive: 30%
O=C(NCc1cccs1)c1cccnc1C(=O)O | inconclusive: 1.65 µM [inhibitor, full curve, poor fit] | 
N#Cc1c(C(F)(F)F)cc(-c2ccc(Cl)cc2)nc1SCC(=O)O | inconclusive: 9.28 µM [inhibitor, single point] | 
CC(=O)N1CCN(Cc2nc3cc(NC(=O)c4cccs4)ccc3n2C)CC1 |  | inactive: 6.26%
C/C(CCc1c[nH]c2ccccc12)=N\O | inconclusive: 14.7 µM [inhibitor, partial curve, poor fit] | 
COC(=O)NCc1ccc(S(=O)(=O)N2CCOCC2)cc1 | inconclusive: 20.8 µM [inhibitor, single point] | 
COc1ccc(C2=CSC(/N=C/c3ccc(F)cc3)=NN2)cc1 | inconclusive: 0.738 µM [inhibitor, full curve] | 
Cc1nn(C)c(Cl)c1/C=N/OC(=O)c1ccccc1 |  | inactive: 26%
COc1ccc(NC(=O)CS(=O)CC(=O)Nc2cccc3cccnc23)cc1 (stereo not given) | inconclusive: 18.5 µM [inhibitor, partial curve, poor fit] | 
COc1ccc2cc(C(=O)C3CCCN(C(=O)CCc4cnn(C)c4)C3)ccc2c1 (stereo not given) | inconclusive: 0.165 µM [inhibitor, full curve, poor fit] | 
CCO/C=C/C(=O)N(C)CCC#N | active: 11.7 µM | 
CCC1=C(c2ccc(C)cc2)S(=O)(=O)N=C1N1CCC(C(=O)NCCCN2CCCCC2C)CC1 (stereo not given) |  | inactive: -1.46%
Cc1ccc(NC(=O)CSc2ncccn2)cc1F |  | inactive: 48.1%
c1ccc(N=P(N2CCOCC2)(N2CCOCC2)N2CCOCC2)cc1 |  | inactive: 10.7%
CCOC(=O)[C@@H]1[C@H]2COc3cc(OC)ccc3[C@@H]2N2C(=O)N(c3ccc(C)cc3)C(=O)[C@@]12C | inconclusive: 10.4 µM [inhibitor, single point] | 
CC(C)(C)OC(=O)N1CCC(c2cc(=O)n3[nH]cc(C(=O)Nc4ccc(F)c(Cl)c4)c3n2)CC1 | inconclusive: 2.62 µM [inhibitor, full curve, poor fit] | 
CCCCNc1oc(-c2cccs2)nc1S(=O)(=O)c1ccccc1 | inconclusive: 11.7 µM [inhibitor, partial curve, poor fit] | 
Cc1ccccc1OCC(=O)Nc1cccc(S(=O)(=O)NC2=NCCCCC2)c1 | inconclusive: 18.5 µM [inhibitor, partial curve, poor fit] | 
Cn1c(=O)[nH]c(=O)c2c1nc(NCCN)n2CCOc1ccccc1 | inconclusive: 18.5 µM [inhibitor, single point] | 
COc1ccc(S(=O)(=O)Nc2nc3ccccc3nc2Nc2cccc(C(=O)O)c2)cc1 |  | inactive: -16.8%
Cc1c(C(=O)N2CCN(c3ccc([N+](=O)[O-])cc3)CC2)sc2ncn(CC(=O)N3CCOCC3)c(=O)c12 | inconclusive: 0.522 µM [inhibitor, full curve] | 

Reprinted at random: 6 records from the list, in no set order.
SMILES | Potency | activity change, negative = inhibition
COc1ccc(C(=O)NCCCc2ccccc2)cc1OC | inconclusive: 6.57 µM [inhibitor, partial curve, poor fit] | 
Cc1ccc(C)c(OCC(O)CN2CCCCC2C)c1 (stereo not given) | active: 10.4 µM | 
Cn1c(=O)[nH]c(=O)c2c1nc(NCCN)n2CCOc1ccccc1 | inconclusive: 18.5 µM [inhibitor, single point] | 
COc1ccc2cc(C(=O)C3CCCN(C(=O)CCc4cnn(C)c4)C3)ccc2c1 (stereo not given) | inconclusive: 0.165 µM [inhibitor, full curve, poor fit] | 
COCCNC(=O)c1nc2c(nnn2Cc2cc(C)ccc2C)c(=O)[nH]1 | active: 9.28 µM | 
O=C(COC(=O)CNC(=O)c1ccccc1F)Nc1cccc(S(=O)(=O)N2CCCCCC2)c1 |  | inactive: 10.6%

From PubChem BioAssay AID504834 (National Center for Advancing Translational Sciences (NCATS), 2011)
